# Test results as given in the supplement of paper PMC12819154, “High-throughput peptide-centric local stability assay extends protein–ligand identification to membrane proteins, tissues and bacteria” (Nature Structural & Molecular Biology, 2025).
# Chains of the proteins cited; added tags and fusions are not shown. Lines headed by an entry give the natural chain unless they say otherwise; changes in a name come on top.
# UniProt P36959: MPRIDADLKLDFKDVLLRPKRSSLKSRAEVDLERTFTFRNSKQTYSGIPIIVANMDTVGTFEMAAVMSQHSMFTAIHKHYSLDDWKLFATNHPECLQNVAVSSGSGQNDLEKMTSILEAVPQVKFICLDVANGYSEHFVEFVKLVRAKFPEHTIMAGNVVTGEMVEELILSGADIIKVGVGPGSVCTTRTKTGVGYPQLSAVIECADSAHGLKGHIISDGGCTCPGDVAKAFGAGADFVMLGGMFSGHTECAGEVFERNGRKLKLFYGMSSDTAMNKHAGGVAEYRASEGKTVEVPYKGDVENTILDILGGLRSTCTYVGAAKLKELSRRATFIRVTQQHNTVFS
# UniProt P42694: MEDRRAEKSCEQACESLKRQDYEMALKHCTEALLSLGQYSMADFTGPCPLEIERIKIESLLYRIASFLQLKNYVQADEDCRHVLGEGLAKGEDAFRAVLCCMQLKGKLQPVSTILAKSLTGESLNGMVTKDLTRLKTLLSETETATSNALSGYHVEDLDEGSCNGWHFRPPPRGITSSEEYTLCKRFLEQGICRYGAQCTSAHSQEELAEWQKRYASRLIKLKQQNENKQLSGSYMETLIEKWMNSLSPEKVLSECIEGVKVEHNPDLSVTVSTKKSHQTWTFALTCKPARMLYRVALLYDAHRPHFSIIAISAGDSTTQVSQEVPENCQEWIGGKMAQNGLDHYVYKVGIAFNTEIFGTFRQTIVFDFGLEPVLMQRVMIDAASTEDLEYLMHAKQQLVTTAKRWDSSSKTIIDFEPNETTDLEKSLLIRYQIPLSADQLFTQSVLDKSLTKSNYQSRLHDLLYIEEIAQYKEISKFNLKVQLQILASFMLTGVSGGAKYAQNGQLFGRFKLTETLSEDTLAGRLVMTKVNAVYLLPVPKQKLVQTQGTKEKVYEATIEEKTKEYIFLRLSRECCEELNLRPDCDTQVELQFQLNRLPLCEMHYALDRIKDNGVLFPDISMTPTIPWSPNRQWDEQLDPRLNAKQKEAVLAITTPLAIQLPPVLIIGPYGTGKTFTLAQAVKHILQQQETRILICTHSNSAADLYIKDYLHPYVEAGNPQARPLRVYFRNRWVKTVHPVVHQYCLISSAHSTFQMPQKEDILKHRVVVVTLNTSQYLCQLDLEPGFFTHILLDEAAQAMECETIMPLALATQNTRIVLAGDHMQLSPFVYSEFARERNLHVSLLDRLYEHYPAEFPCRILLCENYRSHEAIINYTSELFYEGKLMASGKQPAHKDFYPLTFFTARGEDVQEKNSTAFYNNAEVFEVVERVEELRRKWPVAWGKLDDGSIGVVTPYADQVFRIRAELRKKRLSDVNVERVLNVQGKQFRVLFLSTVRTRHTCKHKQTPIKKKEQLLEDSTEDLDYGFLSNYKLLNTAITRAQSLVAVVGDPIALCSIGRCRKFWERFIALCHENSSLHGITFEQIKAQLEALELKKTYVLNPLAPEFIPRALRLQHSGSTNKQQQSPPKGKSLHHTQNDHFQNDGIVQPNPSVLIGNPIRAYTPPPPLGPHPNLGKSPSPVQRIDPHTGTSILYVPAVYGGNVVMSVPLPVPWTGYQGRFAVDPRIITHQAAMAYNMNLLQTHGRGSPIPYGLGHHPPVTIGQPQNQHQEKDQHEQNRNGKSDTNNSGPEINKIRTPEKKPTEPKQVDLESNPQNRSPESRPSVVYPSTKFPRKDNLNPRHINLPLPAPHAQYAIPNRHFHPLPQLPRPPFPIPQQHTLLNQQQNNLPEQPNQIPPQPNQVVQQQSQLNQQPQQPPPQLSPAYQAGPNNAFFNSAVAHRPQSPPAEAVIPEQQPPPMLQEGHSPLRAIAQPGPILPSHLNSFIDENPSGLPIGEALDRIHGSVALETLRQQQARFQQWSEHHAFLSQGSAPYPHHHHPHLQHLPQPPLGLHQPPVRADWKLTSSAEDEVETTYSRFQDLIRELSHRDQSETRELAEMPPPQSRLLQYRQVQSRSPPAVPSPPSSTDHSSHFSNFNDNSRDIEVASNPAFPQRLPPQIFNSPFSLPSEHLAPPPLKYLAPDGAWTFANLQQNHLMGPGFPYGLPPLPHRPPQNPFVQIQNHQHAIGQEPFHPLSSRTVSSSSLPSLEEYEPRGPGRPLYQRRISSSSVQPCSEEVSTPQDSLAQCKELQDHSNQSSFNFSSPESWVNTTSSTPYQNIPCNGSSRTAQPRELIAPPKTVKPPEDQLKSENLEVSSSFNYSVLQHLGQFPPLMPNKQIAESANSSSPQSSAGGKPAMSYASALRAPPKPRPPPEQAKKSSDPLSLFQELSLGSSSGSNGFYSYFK
# UniProt P36405: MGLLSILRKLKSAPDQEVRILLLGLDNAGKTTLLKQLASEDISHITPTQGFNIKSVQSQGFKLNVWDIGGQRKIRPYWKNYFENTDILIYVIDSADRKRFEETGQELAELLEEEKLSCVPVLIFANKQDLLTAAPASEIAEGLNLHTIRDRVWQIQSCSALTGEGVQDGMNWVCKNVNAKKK
# UniProt P38919, whole entry: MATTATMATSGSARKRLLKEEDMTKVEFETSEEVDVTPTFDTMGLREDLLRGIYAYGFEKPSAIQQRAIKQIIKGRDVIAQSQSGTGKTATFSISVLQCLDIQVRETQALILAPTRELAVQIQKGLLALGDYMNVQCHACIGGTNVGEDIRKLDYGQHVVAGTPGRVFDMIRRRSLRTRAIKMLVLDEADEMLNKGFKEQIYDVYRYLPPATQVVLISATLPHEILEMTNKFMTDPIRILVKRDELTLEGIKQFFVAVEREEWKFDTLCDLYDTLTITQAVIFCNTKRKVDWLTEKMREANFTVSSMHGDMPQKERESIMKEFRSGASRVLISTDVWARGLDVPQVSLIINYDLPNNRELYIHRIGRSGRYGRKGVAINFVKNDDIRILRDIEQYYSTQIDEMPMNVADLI
# UniProt P40425: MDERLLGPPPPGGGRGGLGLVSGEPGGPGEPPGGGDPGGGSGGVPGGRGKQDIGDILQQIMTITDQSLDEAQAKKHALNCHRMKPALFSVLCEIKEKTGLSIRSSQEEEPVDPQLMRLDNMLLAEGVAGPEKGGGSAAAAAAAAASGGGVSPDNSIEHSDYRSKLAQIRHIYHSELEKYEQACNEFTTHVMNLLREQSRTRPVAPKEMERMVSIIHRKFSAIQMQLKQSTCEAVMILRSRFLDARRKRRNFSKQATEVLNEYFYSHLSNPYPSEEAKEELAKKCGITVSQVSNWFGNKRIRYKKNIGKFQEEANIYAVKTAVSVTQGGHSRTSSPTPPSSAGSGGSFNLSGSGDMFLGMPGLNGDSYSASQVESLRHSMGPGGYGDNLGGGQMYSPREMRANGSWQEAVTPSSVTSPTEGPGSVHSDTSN
# UniProt P41226: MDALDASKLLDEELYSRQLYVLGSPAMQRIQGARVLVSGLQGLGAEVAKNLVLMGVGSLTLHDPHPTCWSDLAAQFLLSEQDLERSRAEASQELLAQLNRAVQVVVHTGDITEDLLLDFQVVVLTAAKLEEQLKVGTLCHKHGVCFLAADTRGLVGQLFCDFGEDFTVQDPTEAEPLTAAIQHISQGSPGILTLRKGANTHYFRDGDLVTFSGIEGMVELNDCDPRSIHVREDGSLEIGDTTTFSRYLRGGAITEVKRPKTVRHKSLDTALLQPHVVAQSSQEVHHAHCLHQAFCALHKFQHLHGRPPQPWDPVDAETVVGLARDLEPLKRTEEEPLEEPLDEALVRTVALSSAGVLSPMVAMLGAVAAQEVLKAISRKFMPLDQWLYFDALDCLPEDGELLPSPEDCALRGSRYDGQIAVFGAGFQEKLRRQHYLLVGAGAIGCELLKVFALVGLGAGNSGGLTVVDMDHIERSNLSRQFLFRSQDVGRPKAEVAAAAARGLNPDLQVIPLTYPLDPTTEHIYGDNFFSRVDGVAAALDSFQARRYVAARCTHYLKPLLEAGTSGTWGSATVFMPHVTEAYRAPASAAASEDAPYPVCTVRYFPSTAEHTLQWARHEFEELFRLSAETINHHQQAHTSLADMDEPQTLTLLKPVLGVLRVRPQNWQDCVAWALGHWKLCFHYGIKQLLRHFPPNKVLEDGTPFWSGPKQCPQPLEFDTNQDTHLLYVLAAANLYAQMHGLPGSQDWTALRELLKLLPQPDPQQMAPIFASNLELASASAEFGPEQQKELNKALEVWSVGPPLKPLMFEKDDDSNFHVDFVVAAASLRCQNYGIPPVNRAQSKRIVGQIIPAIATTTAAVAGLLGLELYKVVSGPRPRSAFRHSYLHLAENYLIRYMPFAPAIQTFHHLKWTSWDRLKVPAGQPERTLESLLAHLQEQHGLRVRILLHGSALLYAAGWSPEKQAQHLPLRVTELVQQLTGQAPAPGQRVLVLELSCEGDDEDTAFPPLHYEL
# UniProt P29474: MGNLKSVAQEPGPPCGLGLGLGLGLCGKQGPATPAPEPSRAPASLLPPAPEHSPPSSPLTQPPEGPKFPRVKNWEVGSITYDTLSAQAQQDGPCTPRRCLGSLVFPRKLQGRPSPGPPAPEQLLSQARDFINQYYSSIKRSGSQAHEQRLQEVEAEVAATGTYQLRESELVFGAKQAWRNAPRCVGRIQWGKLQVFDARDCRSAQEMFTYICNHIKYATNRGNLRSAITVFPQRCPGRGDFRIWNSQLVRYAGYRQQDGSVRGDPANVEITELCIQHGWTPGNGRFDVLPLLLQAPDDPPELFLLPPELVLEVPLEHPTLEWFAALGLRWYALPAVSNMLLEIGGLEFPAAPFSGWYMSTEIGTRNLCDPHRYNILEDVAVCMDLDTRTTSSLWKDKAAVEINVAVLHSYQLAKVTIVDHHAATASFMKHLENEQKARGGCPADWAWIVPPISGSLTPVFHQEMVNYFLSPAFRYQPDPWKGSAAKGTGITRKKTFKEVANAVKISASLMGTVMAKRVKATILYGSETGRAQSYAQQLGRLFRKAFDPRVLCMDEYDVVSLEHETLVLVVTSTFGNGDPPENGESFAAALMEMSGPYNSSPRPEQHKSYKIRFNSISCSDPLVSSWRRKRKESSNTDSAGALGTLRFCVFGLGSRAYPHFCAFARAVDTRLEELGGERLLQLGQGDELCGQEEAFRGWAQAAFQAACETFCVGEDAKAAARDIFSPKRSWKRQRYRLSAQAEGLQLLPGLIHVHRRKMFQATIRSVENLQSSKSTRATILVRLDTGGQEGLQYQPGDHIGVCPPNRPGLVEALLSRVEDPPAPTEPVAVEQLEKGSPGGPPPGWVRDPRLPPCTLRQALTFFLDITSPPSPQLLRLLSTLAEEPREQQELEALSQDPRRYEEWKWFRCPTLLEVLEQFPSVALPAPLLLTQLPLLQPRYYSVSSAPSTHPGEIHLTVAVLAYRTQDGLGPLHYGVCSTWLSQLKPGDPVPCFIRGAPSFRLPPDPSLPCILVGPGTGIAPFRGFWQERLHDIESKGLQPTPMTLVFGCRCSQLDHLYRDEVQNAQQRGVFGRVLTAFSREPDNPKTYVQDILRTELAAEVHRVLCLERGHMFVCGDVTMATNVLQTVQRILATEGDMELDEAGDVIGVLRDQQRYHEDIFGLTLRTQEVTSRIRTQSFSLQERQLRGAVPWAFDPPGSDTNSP
# Some of the results follow. Most entries show no effect beyond the scatter of the controls.
# Compound: Cc1nc(Nc2ncc(C(=O)Nc3c(C)cccc3Cl)s2)cc(N2CCN(CCO)CC2)n1 [dasatinib]
# Assay: log2 fold change of tryptic peptide abundance, ligand vs vehicle (limited proteolysis) (log2 ratio); higher = more trypsin-susceptible (destabilized)
# Settings: ligand concentration: 5 uM; sample: K562 cleared lysate
row,Target,log2 fold change
1,"GMPR (peptide sequence: LKLFYGMSSDTAMNK, peptide start residue: 263) (UniProt P36959)",-0.381
2,"HELZ (peptide sequence: FLEQGICR, peptide start residue: 187) (UniProt P42694)",-0.448
3,"ARL3 (peptide sequence: ILLLGLDNAGK, peptide start residue: 20) (UniProt P36405)",0.0685
4,"EIF4A3 (peptide sequence: MREANFTVSSMHGDMPQKER, peptide start residue: 297) (UniProt P38919)",0.63
5,"PBX2 (peptide sequence: LLGPPPPGGGR, peptide start residue: 5) (UniProt P40425)",-0.109
6,"RPL12 (peptide sequence: ALKEPPRDR, peptide start residue: 84) (UniProt P30050)",0.498
7,"UBA7 (peptide sequence: HSYLHLAENYLIR, peptide start residue: 883) (UniProt P41226)",-0.0823
8,"NOS3 (peptide sequence: TYVQDILR, peptide start residue: 1086) (UniProt P29474)",0.452

# Exported as tab-separated lines: part of the list above.
row	Target	log2 fold change
1	GMPR (peptide sequence: LKLFYGMSSDTAMNK, peptide start residue: 263) (UniProt P36959)	-0.381
2	HELZ (peptide sequence: FLEQGICR, peptide start residue: 187) (UniProt P42694)	-0.448
